# Experimental data as given in the supplement of paper PMC6411743.
# ± gives the standard deviation of the averaged measurements. The list shows a part of the results, in another mix than the full data.
# Experiments:
# Test in all cases: NP40-soluble protein abundance relative to vehicle (solubility fold change) (ratio); higher = more soluble protein in presence of ATP
# RAB9A = target: T1, RAB9A (UniProt P51151)
# T1 sequence (whole entry): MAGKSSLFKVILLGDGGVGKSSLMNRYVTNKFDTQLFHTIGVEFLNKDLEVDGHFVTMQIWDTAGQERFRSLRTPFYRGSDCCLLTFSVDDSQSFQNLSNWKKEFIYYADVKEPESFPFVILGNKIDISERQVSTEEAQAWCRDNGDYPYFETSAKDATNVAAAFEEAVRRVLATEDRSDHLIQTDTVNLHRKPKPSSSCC
# In short: (§1)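 Values are fold changes against the detergent-processed vehicle, based on vsn-normalised intensities. Jurkat crude lysate was treated at eight concentrations from 0.1 to 10 mM (10 min at room temperature, then 3 min at 37 °C), solubilised with 0.8% NP40 and benzonase, ultracentrifuged and analysed by TMT-labelled LC-MS/MS over three independent experiments.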
# TMED10 = target: T2, TMED10 (UniProt P49755)
# T2 sequence (whole entry): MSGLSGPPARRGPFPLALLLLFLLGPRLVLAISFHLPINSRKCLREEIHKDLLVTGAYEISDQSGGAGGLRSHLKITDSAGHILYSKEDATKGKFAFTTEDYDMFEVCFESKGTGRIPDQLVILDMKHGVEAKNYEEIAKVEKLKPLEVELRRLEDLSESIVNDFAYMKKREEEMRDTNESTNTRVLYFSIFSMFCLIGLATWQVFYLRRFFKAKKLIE
# In short: as §1
# UQCRFS1 = target: T3, UQCRFS1 (UniProt P47985)
# T3 sequence (whole entry): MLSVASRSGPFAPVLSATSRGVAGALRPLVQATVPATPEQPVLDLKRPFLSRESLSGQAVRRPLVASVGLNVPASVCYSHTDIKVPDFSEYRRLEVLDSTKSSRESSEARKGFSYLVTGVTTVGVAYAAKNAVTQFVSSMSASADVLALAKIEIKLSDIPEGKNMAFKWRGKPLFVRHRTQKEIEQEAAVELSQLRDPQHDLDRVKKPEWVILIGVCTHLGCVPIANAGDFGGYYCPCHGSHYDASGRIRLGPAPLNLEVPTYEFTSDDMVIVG
# In short: as §1
# [1] = target: T4, UniProt P42224 and related entries
# T4 sequence (whole entry): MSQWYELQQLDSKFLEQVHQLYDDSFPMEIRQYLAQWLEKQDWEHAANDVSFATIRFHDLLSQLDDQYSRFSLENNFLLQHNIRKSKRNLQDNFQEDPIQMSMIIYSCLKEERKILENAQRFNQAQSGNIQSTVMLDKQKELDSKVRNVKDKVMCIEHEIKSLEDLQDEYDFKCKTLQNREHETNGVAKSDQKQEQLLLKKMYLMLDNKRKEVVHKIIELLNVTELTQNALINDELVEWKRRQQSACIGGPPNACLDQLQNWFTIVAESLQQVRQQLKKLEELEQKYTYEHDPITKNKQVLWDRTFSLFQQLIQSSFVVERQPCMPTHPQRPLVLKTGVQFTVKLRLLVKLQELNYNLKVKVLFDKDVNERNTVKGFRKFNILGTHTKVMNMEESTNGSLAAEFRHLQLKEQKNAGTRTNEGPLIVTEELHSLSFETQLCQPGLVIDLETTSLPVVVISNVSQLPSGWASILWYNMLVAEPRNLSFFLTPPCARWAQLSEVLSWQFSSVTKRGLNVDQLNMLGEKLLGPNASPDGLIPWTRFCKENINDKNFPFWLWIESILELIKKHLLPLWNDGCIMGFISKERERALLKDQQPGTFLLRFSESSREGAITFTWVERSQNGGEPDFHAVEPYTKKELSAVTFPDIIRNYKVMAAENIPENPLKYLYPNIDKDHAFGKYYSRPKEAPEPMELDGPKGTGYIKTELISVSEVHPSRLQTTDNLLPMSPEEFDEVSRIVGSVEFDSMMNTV
# In short: as §1
# [2] = target: T5, UniProt P48739 and related entries
# T5 sequence (whole entry): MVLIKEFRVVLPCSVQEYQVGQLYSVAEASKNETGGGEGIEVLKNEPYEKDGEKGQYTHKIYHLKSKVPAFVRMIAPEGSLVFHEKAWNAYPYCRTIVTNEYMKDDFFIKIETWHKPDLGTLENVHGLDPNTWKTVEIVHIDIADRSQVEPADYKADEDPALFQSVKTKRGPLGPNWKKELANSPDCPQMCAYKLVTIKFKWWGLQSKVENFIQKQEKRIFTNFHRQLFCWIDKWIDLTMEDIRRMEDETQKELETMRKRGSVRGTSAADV
# In short: as §1
# [3] = target: T6, UniProt P49116 and related entries
# T6 sequence (whole entry): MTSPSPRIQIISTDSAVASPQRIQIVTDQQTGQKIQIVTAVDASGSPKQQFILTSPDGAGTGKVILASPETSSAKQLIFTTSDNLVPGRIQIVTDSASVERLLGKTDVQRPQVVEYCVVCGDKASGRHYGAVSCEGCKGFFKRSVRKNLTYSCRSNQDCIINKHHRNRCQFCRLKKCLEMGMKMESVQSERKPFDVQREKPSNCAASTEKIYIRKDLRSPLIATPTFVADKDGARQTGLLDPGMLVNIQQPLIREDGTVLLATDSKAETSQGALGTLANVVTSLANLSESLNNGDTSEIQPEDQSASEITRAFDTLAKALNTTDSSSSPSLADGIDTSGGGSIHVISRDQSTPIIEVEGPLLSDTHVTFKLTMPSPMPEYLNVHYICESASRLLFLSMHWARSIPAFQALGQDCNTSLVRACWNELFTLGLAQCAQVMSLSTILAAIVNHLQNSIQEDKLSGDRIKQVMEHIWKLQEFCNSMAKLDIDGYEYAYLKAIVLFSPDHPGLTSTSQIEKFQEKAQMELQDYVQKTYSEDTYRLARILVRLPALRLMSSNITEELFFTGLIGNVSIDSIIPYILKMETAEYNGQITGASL
# In short: as §1
# [4] = target: T7, UniProt P51178 and related entries
# T7 sequence (whole entry): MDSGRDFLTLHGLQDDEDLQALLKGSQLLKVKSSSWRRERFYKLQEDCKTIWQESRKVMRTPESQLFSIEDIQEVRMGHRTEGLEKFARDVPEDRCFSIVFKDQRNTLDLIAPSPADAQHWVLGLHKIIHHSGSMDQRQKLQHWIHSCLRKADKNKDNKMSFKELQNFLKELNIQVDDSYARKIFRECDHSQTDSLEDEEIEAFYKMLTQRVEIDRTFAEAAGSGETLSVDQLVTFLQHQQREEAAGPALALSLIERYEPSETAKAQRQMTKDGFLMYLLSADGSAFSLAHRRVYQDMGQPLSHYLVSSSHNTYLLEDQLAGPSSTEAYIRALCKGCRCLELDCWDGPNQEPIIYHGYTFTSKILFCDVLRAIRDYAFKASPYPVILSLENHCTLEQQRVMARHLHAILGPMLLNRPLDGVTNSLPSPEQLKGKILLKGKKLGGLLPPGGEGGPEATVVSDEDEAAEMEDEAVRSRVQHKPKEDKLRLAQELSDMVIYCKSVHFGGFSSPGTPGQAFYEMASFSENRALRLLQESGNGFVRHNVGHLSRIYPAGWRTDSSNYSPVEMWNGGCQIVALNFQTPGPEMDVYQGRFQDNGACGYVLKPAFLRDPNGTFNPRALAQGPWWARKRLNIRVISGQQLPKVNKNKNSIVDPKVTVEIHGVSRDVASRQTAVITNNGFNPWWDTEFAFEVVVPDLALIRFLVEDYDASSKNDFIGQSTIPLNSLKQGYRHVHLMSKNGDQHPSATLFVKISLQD
# In short: as §1
# WAS = target: T8, WAS (UniProt P42768)
# T8 sequence (whole entry): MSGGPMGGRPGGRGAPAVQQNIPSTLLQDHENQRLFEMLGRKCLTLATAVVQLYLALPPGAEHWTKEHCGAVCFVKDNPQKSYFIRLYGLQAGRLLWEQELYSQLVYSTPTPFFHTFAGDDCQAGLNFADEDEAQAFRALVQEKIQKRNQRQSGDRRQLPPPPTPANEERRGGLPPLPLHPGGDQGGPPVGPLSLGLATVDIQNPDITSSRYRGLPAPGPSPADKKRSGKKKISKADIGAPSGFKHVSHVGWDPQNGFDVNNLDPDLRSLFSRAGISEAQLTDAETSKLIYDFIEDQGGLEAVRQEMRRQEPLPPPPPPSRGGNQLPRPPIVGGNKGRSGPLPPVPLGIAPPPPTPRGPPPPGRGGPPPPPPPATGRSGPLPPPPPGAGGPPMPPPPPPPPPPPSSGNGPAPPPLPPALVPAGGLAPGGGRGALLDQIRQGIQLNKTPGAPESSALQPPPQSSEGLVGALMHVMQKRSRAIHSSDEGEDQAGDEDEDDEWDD
# In short: as §1
compound,measurement,setting,value
Nc1ncnc2c1ncn2[C@@H]1O[C@H](COP(=O)(O)OP(=O)(O)OP(=O)(O)O)[C@@H](O)[C@H]1O [adenosine triphosphate],NP40-soluble protein abundance,RAB9A; concentration: 6mM,1.02 ± 0.092
same,NP40-soluble protein abundance,RAB9A; concentration: 8mM,0.982 ± 0.051
same,NP40-soluble protein abundance,RAB9A; concentration: 10mM,0.9904 ± 0.0036
same,NP40-soluble protein abundance,TMED10; concentration: 1mM,1.07 ± 0.063
same,NP40-soluble protein abundance,TMED10; concentration: 2mM,1.02 ± 0.083
same,NP40-soluble protein abundance,TMED10; concentration: 4mM,0.96 ± 0.084
same,NP40-soluble protein abundance,TMED10; concentration: 6mM,1 ± 0.1
same,NP40-soluble protein abundance,TMED10; concentration: 8mM,0.993 ± 0.13
same,NP40-soluble protein abundance,TMED10; concentration: 10mM,0.971 ± 0.076
same,NP40-soluble protein abundance,UQCRFS1; concentration: 1mM,1.02 ± 0.071
same,NP40-soluble protein abundance,UQCRFS1; concentration: 2mM,1.02 ± 0.054
same,NP40-soluble protein abundance,UQCRFS1; concentration: 4mM,0.968 ± 0.044
same,NP40-soluble protein abundance,UQCRFS1; concentration: 6mM,0.975 ± 0.11
same,NP40-soluble protein abundance,UQCRFS1; concentration: 8mM,0.974 ± 0.054
same,NP40-soluble protein abundance,UQCRFS1; concentration: 10mM,0.971 ± 0.057
same,NP40-soluble protein abundance,[1]; concentration: 1mM,1 ± 0.041
same,NP40-soluble protein abundance,[1]; concentration: 2mM,1 ± 0.025
same,NP40-soluble protein abundance,[1]; concentration: 4mM,0.979 ± 0.03
same,NP40-soluble protein abundance,[1]; concentration: 6mM,0.978 ± 0.069
same,NP40-soluble protein abundance,[1]; concentration: 8mM,0.982 ± 0.044
same,NP40-soluble protein abundance,[1]; concentration: 10mM,0.96 ± 0.046
same,NP40-soluble protein abundance,[2]; concentration: 1mM,1.02 ± 0.058
same,NP40-soluble protein abundance,[2]; concentration: 2mM,0.992 ± 0.068
same,NP40-soluble protein abundance,[2]; concentration: 4mM,0.97 ± 0.069
same,NP40-soluble protein abundance,[2]; concentration: 6mM,0.964 ± 0.11
same,NP40-soluble protein abundance,[2]; concentration: 8mM,0.991 ± 0.068
same,NP40-soluble protein abundance,[2]; concentration: 10mM,0.97 ± 0.056
same,NP40-soluble protein abundance,[3]; concentration: 1mM,0.9959 ± 0.005
same,NP40-soluble protein abundance,[3]; concentration: 2mM,1.1 ± 0.1
same,NP40-soluble protein abundance,[3]; concentration: 4mM,1 ± 0.042
same,NP40-soluble protein abundance,[3]; concentration: 6mM,0.986 ± 0.018
same,NP40-soluble protein abundance,[3]; concentration: 8mM,0.981 ± 0.024
same,NP40-soluble protein abundance,[3]; concentration: 10mM,0.978 ± 0.018
same,NP40-soluble protein abundance,[4]; concentration: 1mM,1.01 ± 0.084
same,NP40-soluble protein abundance,[4]; concentration: 2mM,0.983 ± 0.044
same,NP40-soluble protein abundance,[4]; concentration: 4mM,1.08 ± 0.063
same,NP40-soluble protein abundance,[4]; concentration: 6mM,1 ± 0.029
same,NP40-soluble protein abundance,[4]; concentration: 8mM,0.983 ± 0.054
same,NP40-soluble protein abundance,[4]; concentration: 10mM,0.964 ± 0.015
same,NP40-soluble protein abundance,WAS; concentration: 1mM,0.925 ± 0.099
same,NP40-soluble protein abundance,WAS; concentration: 2mM,0.916 ± 0.048
same,NP40-soluble protein abundance,WAS; concentration: 4mM,0.911 ± 0.059
same,NP40-soluble protein abundance,WAS; concentration: 6mM,0.888 ± 0.048
same,NP40-soluble protein abundance,WAS; concentration: 8mM,0.876 ± 0.04
same,NP40-soluble protein abundance,WAS; concentration: 10mM,0.847 ± 0.055

# Part of the list above, with bars between the fields.
compound | measurement | setting | value
Nc1ncnc2c1ncn2[C@@H]1O[C@H](COP(=O)(O)OP(=O)(O)OP(=O)(O)O)[C@@H](O)[C@H]1O [adenosine triphosphate] | NP40-soluble protein abundance | [1]; concentration: 8mM | 0.982 ± 0.044
same | NP40-soluble protein abundance | [1]; concentration: 10mM | 0.96 ± 0.046
same | NP40-soluble protein abundance | [2]; concentration: 1mM | 1.02 ± 0.058
same | NP40-soluble protein abundance | [2]; concentration: 2mM | 0.992 ± 0.068
same | NP40-soluble protein abundance | [2]; concentration: 4mM | 0.97 ± 0.069
same | NP40-soluble protein abundance | [2]; concentration: 6mM | 0.964 ± 0.11
same | NP40-soluble protein abundance | [2]; concentration: 8mM | 0.991 ± 0.068
same | NP40-soluble protein abundance | [2]; concentration: 10mM | 0.97 ± 0.056
same | NP40-soluble protein abundance | [3]; concentration: 1mM | 0.9959 ± 0.005
